According to patent US5968920A, “Compounds having a benzisoselen-azoline and -azine structure, method for preparing same and therapeutic uses thereof” (Oxis Isle of Man, Limited, priority 1994, dated 1999):
At least one compound was matched to its structure with a doubt left.

Tests used:
[1] = Glutathione peroxidase activity, t-BuOOH as hydroperoxide; assay type: biochemical; conditions: compound 20 μM, pH = 7.3, 37° C., [GSH] = 2 mM
Procedure: (§1) To 1.5 ml of HEPES buffer, 50 mM, pH=7.3, containing 0.2 mM of DTPA, 0.144 mM of NADPH, 2.2 mM of reduced glutathione and 1.1 U/ml of glutathione disulfide reductase, pre-equilibrated for 2 minutes at 37° C., 100 μl of an ethanolic mother solution of the compound to be tested or 100 μl of absolute ethanol (blank) was added. Each compound was tested at a final concentration of 20 μM.
(§2) Subsequently, 50 μl of the following was added:
tertiobutyl hydroperoxide (t-BuOOH), 6.6 mM in ultrapure water;
(§3) or the hydroperoxide of linoleic acid (18:2-OOH) prepared using soya lipoxygenase (see M. O. Funk et al., Lipids, (1976), 11, pp 113-117), 3.3 mM in a water/methanol mixture, 85/15 (V/V). The glutathione peroxidase activity was measured at 37° C. by measuring the reduction in absorbance at 340 nm over 5 minutes. The initial enzymatic rate or activity was proportional to the slope of the plot of absorbance against time.
(§4) They are expressed in nmoles of hydroperoxide reduced per minute.

[2] = Glutathione peroxidase activity, hydrogen peroxide; assay type: biochemical; conditions: compound 20 μM, pH = 7.3, 37° C., [GSH] = 2 mM
Procedure: as §1, §2
or hydrogen peroxide (H2 O2), 1.6 mM in ultrapure water;
as §3, §4

[3] = Glutathione peroxidase activity, linoleic acid hydroperoxide; assay type: biochemical; conditions: compound 20 μM, pH = 7.3, 37° C., [GSH] = 2 mM
Procedure: as §1, §2, §3, §4

[4] = test system: endothelial cells; test: Viability of endothelial cells subjected to linoleic acid hydroperoxide (MTT); assay type: cell-based, human; conditions: compound 4 μM, 1 h; 18:2-OOH 50 μM, 2 h; MTT after about twenty hours
Procedure: Human endothelial cells were cultivated at 37° C. in multi-hole plates or Petri dishes in an atmosphere of saturated humidity constituted by a gaseous mixture of 95% air and 5% of CO2. The culture medium was constituted by a M 199 medium, pH=7.4, containing 20% of foetal calf serum, 2 mM of L-glutamine, 100 U/ml of penicillin, 100 μg/ml of streptomycin and 1% by volume of a medium supplement containing heparin and a cell growth factor.
When the cells were near confluence, they were incubated for one hour in the presence or absence of one of the following compounds: BXT-51056, BXT-51072, BXT-51077, or ebelsen. Each of these compounds was incorporated at 4 μM into culture medium containing 2% of foetal calf serum, all other conditions being the same.
After washing the cells three successive times with a PBS buffer, they were incubated in the presence or absence (control) of linoleic acid hydroperoxide (18:2-OOH), 50 μM, in the culture medium defined above. […] After about twenty hours, the viability of the cells was determined by measurement using the bromide of 3-(4,5-dimethylthiazol-2-yl)-2,5-diphenyl-2H-tetrazolium (MTT).
The results are shown in FIG. 1, expressed as the survival percentage with respect to the control and where the reference is shown by the black rectangle.

## CC1(C)N[Se]c2ccccc21 [BXT-51056, 3,3-dimethyl-benzisoselenazoline]
[1]
  Glutathione peroxidase activity, t--BuOOH: 8.8 nmoles of hydroperoxide reduced/min
[2]
  Glutathione peroxidase activity, H2 O2: 12 nmoles of hydroperoxide reduced/min
[3]
  Glutathione peroxidase activity, 18:2-OOH: 29.9 nmoles of hydroperoxide reduced/min
[4]
  protection of the cells from death induced by 18:2-OOH: significantly protected the cells from death
